{"sequences": {"note": "Protein sequences, listed by entry. Tags and fused reporters are not part of them.", "UniProt Q09028": "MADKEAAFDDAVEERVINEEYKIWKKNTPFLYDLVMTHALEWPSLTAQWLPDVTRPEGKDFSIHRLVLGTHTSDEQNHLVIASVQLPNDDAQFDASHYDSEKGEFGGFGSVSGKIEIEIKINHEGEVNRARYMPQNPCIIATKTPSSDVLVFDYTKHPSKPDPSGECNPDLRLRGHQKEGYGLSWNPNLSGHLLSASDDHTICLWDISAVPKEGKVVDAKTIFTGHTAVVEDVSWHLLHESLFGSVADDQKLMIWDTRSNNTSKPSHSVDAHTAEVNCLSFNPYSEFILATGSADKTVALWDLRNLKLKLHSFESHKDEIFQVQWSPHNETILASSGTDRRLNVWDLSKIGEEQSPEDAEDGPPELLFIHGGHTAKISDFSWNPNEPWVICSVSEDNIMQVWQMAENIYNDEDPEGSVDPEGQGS"}, "source": "paper PMC6053364", "biological_target": "T1, ARMC12, stably overexpressed in SH-SY5Y and SK-N-SH cells (human) (UniProt Q5T9G4)", "T1 sequence": "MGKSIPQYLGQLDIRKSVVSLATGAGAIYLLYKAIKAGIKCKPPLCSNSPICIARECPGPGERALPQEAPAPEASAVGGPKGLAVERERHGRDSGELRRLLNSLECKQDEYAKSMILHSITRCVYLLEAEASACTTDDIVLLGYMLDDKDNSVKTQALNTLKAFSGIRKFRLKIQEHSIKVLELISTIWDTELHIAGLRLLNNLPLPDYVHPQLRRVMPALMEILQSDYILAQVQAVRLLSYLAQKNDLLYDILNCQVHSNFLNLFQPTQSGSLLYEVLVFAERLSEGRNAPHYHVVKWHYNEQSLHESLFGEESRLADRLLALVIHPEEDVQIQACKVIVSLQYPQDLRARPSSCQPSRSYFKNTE", "experiment": "affinity purification with mass spectrometry; ARMC12 antibody immunoprecipitation from extracts of SH-SY5Y and SK-N-SH cells stably transfected with empty vector (mock) or ARMC12; Coomassie staining, trypsin digestion, LC-MS/MS", "note": "Results are given in words; binding and its absence hold for the method and conditions named. Binding seen in cells or lysates may run through a third protein. A yes stands for co-enrichment or nearness to the bait. Other partners may have been found.", "data": [{"substance": "retinoblastoma binding protein 4 (RBBP4), endogenous (from UniProt Q09028 1-425)", "values": [{"measurement": "binding", "result": "binds"}]}]}
